In patent publication US20100056371A1 (priority 2007, published 2010):
Some results were stated once for a whole list of compounds, not compound by compound.

Experiments:
[1] = system: Pyrenophora [syn. Drechslera] teres; assay: Efficacy against net blotch of barley caused by Pyrenophora teres with 1-day protective application; type: in vivo, Pyrenophora teres on barley seedlings; settings: 250 ppm active ingredient, sprayed 24 h before inoculation, barley seedlings, rated after 6 days; untreated plants 90% infected
[2] = system: Alternaria solani; assay: Efficacy against early blight on tomatoes caused by Alternaria solani (protective spray); type: in vivo; settings: 250 ppm active ingredient, sprayed 1 day before infection, tomato leaves, rated after 5 days; untreated plants 90% infected
[3] = system: Phytophthora infestans; type: in vivo, Phytophthora infestans on tomato plants; settings: 250 ppm active ingredient, protective spray 1 day before infection, tomato leaves, rated after 6 days; untreated plants 90% infected
[4] = system: Septoria tritici; assay: Activity against Septoria leaf blotch caused by Septoria tritici in a microtiter test; type: cell-based; settings: 125 ppm active compound, malt medium, day 7 after inoculation, absorption at 405 nm; active-free control = 100%
[5] = system: Botrytis cinera; assay: Activity against gray mould caused by Botrytis cinera in a microtiter test; type: cell-based; settings: 125 ppm active compound, malt medium, day 7 after inoculation, absorption at 405 nm; active-free control = 100%
[6] = system: Puccinia recondita; assay: Protective activity against Puccinia recondita on wheat (wheat leaf rust); type: in vivo; settings: 250 ppm active ingredient, sprayed 1 day before dusting with spores, wheat seedlings; untreated plants 90% infected
[7] = system: Erysiphe [syn. Blumeria] graminis form a specialis. tritici; assay: Efficacy against brown rust of wheat caused by Erysiphe [syn. Blumeria] graminis forma specialis tritici; type: in vivo; settings: 250 ppm active ingredient, sprayed 24 h before dusting with spores, wheat seedlings, rated after 7 days; untreated plants 90% infected
[8] = system: Phytophthora infestants; type: cell-based; settings: 125 ppm active compound, pea juice medium, day 7 after inoculation, absorption at 405 nm; active-free control = 100%

Structure (SMILES) | infection of the total leaf area (determined visually) [1] | infection (determined visually) [2] | infection (determined visually) [3] | also measured
CN(C)CCCOc1cc(F)c(-c2c(Cl)nc3ncnn3c2C2CCCCC2)c(F)c1 [II-4] | at most 15% | at most 15% | at most 15% | 
CNCCCOc1cc(F)c(-c2c(Cl)nc3ncnn3c2NCC(F)(F)F)c(F)c1 [Compound I-26] | at most 15% |  | at most 15% | relative growth of the pathogen [4]: less than 15%; relative growth of the pathogen [5]: less than 15%
Cc1nc2ncnn2c(C2CCCCC2)c1-c1c(F)cc(OCCCN)cc1F [II-2] | at most 15% | at most 15% | at most 15% | 
O=C1CNC(=O)N1CCCOc1cc(F)c(-c2c(Cl)nc3ncnn3c2NCC(F)(F)F)c(F)c1 [Compound I-41] |  |  | at most 15% | 
CN(C)CCCOc1cc(F)c(-c2c(Cl)nc3ncnn3c2NCC(F)(F)F)c(F)c1 [Compound I-28] | at most 15% | at most 15% | at most 15% | 
O=C1CCC(=O)N1CCCOc1cc(F)c(-c2c(Cl)nc3ncnn3c2NCC(F)(F)F)c(F)c1 [Compound I-34] | at most 15% |  |  | infection (extent of rust development, determined visually) [6]: at most 15%
Fc1cc(OCCN2CCCC2)cc(F)c1-c1c(Cl)nc2ncnn2c1NCC(F)(F)F [Compound I-13] |  |  |  | infection (extent of rust development, determined visually) [6]: at most 15%
COCCCOc1cc(F)c(-c2c(Cl)nc3ncnn3c2NCC(F)(F)F)c(F)c1 [Compound I-1, {5-Chloro-6-[2,6-difluoro-4-(3-methoxypropoxy)phenyl]-[1,2,4]triazolo[1,5-a]pyrimidin-7-yl}-(2,2,2-trifluoroethyl)amine] |  | at most 15% |  | infection of the total leaf area (determined visually) [7]: at most 10%
Fc1cc(OCCCN2CCCC2)cc(F)c1-c1c(Cl)nc2ncnn2c1NCC(F)(F)F [Compound I-20] |  | at most 15% | at most 15% | 
CN(C)CCCOc1cc(F)c(-c2c(Cl)nc3ncnn3c2C2CCCCC2)c(F)c1.Cl [II-5] | at most 15% | at most 15% | at most 15% | 
CNCCCOc1cc(F)c(-c2c(C)nc3ncnn3c2C2CCCCC2)c(F)c1 [II-3] | at most 15% | at most 15% | at most 15% | 
CC(Cl)C(=O)NCCCOc1cc(F)c(-c2c(Cl)nc3ncnn3c2NCC(F)(F)F)c(F)c1 (stereo not drawn) [Compound I-30] | at most 15% | at most 15% | at most 15% | relative growth of the pathogen [5]: less than 15%
Fc1cc(OCCn2cccn2)cc(F)c1-c1c(Cl)nc2ncnn2c1NCC(F)(F)F [Compound I-14] |  |  |  | relative growth of the pathogen [4]: less than 15%; relative growth of the pathogen [5]: less than 15%
CN(C)C(=O)NCCCOc1cc(F)c(-c2c(Cl)nc3ncnn3c2NCC(F)(F)F)c(F)c1 [Compound I-23] |  |  |  | relative growth of the pathogen [5]: less than 15%
C[C@H](Nc1c(-c2c(F)cc(OCCCO)cc2F)c(Cl)nc2ncnn12)C(F)(F)F [Compound I-7] | at most 15% | at most 15% |  | 
CC(C)=NOCCOc1cc(F)c(-c2c(Cl)nc3ncnn3c2NCC(F)(F)F)c(F)c1 [Compound I-39] |  |  | at most 15% | 
CC(=O)N(C)CCCOc1cc(F)c(-c2c(Cl)nc3ncnn3c2NCC(F)(F)F)c(F)c1 [Compound I-35] | at most 15% |  | at most 15% | 
C[C@H](Nc1c(-c2c(F)cc(OCCCN)cc2F)c(Cl)nc2ncnn12)C(F)(F)F [Compound I-9] | at most 15% |  | at most 15% | 
Fc1cc(OCCN2CCCCC2)cc(F)c1-c1c(Cl)nc2ncnn2c1NCC(F)(F)F [Compound I-12] |  |  |  | relative growth of the pathogen [8]: less than 10%; relative growth of the pathogen [5]: less than 15%
CCC(=O)NCCCOc1cc(F)c(-c2c(Cl)nc3ncnn3c2NCC(F)(F)F)c(F)c1 [Compound I-33] |  | at most 15% | at most 15% | 

Structure (SMILES) | infection of the total leaf area (determined visually) [1] | infection (determined visually) [2] | infection (determined visually) [3] | also measured
Fc1cc(OCCCn2cccn2)cc(F)c1-c1c(Cl)nc2ncnn2c1NCC(F)(F)F [Compound I-21] | at most 15% | at most 15% | at most 15% | 
O=CNCCCOc1cc(F)c(-c2c(Cl)nc3ncnn3c2NCC(F)(F)F)c(F)c1 [Compound I-37] |  |  | at most 15% | infection (extent of rust development, determined visually) [6]: at most 15%
Cc1nc2ncnn2c(C2CCCCC2)c1-c1c(F)cc(OCCCN(C)C)cc1F [II-1, {3-[4-(7-cyclohexyl-5-methyl-[1,2,4]triazolo[1,5-a]pyrimidin-6-yl)-3,5-difluoro-phenoxy]-propyl}-dimethyl-amine] | at most 15% | at most 15% | at most 15% | 
CNCCCOc1cc(F)c(-c2c(Cl)nc3ncnn3c2C2CCCCC2)c(F)c1.O=C(O)C(F)(F)F [II-6] |  |  |  | relative growth of the pathogen [8]: less than 10%; relative growth of the pathogen [5]: less than 15%
Fc1cc(OCCn2cncn2)cc(F)c1-c1c(Cl)nc2ncnn2c1NCC(F)(F)F [Compound I-15] | at most 15% |  | at most 15% | 
CN(C=O)CCCOc1cc(F)c(-c2c(Cl)nc3ncnn3c2NCC(F)(F)F)c(F)c1 [Compound I-36] | at most 15% |  | at most 15% | 
O=C(CCl)NCCCOc1cc(F)c(-c2c(Cl)nc3ncnn3c2NCC(F)(F)F)c(F)c1 [Compound I-31] |  |  |  | relative growth of the pathogen [8]: less than 10%; relative growth of the pathogen [5]: less than 15%
CN(C)C(=O)OCCCOc1cc(F)c(-c2c(Cl)nc3ncnn3c2NCC(F)(F)F)c(F)c1 [Compound I-22] |  | at most 15% |  | infection (extent of rust development, determined visually) [6]: at most 15%
Fc1cc(OCCN2CCOCC2)cc(F)c1-c1c(Cl)nc2ncnn2c1NCC(F)(F)F [Compound I-11] |  |  | at most 15% | infection (extent of rust development, determined visually) [6]: at most 15%
CNCCCOc1cc(F)c(-c2c(Cl)nc3ncnn3c2N[C@@H](C)C(F)(F)F)c(F)c1 [Compound I-8] | at most 15% | at most 15% |  | 
CC(=O)NCCCOc1cc(F)c(-c2c(Cl)nc3ncnn3c2NCC(F)(F)F)c(F)c1 [Compound I-38] |  |  |  | relative growth of the pathogen [8]: less than 10%; relative growth of the pathogen [5]: less than 15%
Fc1cc(OCCCN2CCOCC2)cc(F)c1-c1c(Cl)nc2ncnn2c1NCC(F)(F)F [Compound I-16] | at most 15% |  | at most 15% | 
NCCCOc1cc(F)c(-c2c(Cl)nc3ncnn3c2NCC(F)(F)F)c(F)c1 [Compound I-27] | at most 15% |  | at most 15% | 
CN(C)CCCOc1cc(F)c(-c2c(Cl)nc3ncnn3c2NCC(F)(F)F)c(F)c1 [Compound I-3] |  |  |  | infection of the total leaf area (determined visually) [7]: at most 10%
Fc1cc(OCCCN2CCCCC2)cc(F)c1-c1c(Cl)nc2ncnn2c1NCC(F)(F)F [Compound I-17] |  | at most 15% | at most 15% | 
COCCCOc1cc(F)c(-c2c(Cl)nc3ncnn3c2N[C@@H](C)C(F)(F)F)c(F)c1 [Compound I-6] | at most 15% | at most 15% |  | 
C[C@H](Nc1c(-c2c(F)cc(OCCCN(C)C)cc2F)c(Cl)nc2ncnn12)C(F)(F)F [Compound I-2, {5-Chloro-6-[4-(3-dimethylaminopropoxy)-2,6-difluorophenyl]-[1,2,4]triazolo[1,5-a]pyrimidin-7-yl}-(S)-(2,2,2-trifluoro-1-methylethyl)amine] |  | at most 15% |  | infection of the total leaf area (determined visually) [7]: at most 10%
CNCCCOc1cc(F)c(-c2c(Cl)nc3ncnn3c2N[C@@H](C)C(F)(F)F)c(F)c1 [Compound I-10] |  |  |  | relative growth of the pathogen [4]: less than 15%; relative growth of the pathogen [5]: less than 15%
CC(Cl)C(=O)N(C)CCCOc1cc(F)c(-c2c(Cl)nc3ncnn3c2NCC(F)(F)F)c(F)c1 (stereo not drawn) [Compound I-32] |  | at most 15% | at most 15% | 
